PMC11598884
Results are given in words; binding and its absence hold for the method and conditions named. Binding seen in cells or lysates may run through a third protein. A result given as binding can be weak or reduced; the word gives no strength. Tags and fused reporters may be left off the sequences shown.

Experiments:
[1] = target: T1, Myc-tagged ISCA1 (pcDNA3.1-Myc) (chicken) (UniProt Q5ZJ74); assay: co-IP; HEK293T co-transfected 36 h with pcDNA3.1-Nsp2-Flag and Myc-tagged host protein; RIPA lysis; magnetic beads with Flag, Myc or IgG antibodies overnight at 4 °C; TBST washes; Western blot
T1 sequence: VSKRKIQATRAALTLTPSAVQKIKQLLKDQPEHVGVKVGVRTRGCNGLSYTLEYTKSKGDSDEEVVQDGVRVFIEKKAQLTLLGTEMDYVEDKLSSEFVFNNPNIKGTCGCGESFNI

[2] = target: IBV Nsp2-Flag (pcDNA3.1-Nsp2-Flag) (infectious bronchitis virus (IBV), strain JS/2010/12); assay: as above

Molecule | binding [1] | binding [2]
IBV Nsp2-Flag (pcDNA3.1-Nsp2-Flag) | binds | 
Myc-tagged ISCA1 (pcDNA3.1-Myc) (protein, UniProt Q5ZJ74 13-129) VSKRKIQATRAALTLTPSAVQKIKQLLKDQPEHVGVKVGVRTRGCNGLSYTLEYTKSKGDSDEEVVQDGVRVFIEKKAQLTLLGTEMDYVEDKLSSEFVFNNPNIKGTCGCGESFNI |  | binds
